Test results taken from US20230051797A1, “METHOD FOR RECOVERING EXTRACELLULAR VESICLE AND BLOOD COLLECTION VESSEL” (FUJIREBIO INC., priority 2019, published 2023).

System: CD9, the surface marker protein of extracellular vesicle (EV)
Test: Study of concentrations of chelating agent and surfactant (CD9 in supernatant, Example 4)
Parameters: species or system human
Conditions: Tergitol 15-S-40 0%
Description: To 0.01 g/mL of magnetic particles in 10 mM MES buffer (pH 5.0), 0.2 mg/mL of a mouse anti-CD9 monoclonal antibody (Fujirebio Inc.) that recognizes an extracellular vesicle (EV) surface marker CD9, was added. Then, the resulting solution was gently stirred at 25° C. for one hour for incubation. After the reaction, the magnetic particles were magnetically collected and washed with a washing solution (50 mM Tris buffer, 150 mM NaCl2, 2.0% BSA, pH 7.2) in order to obtain anti-CD9 antibody solid-phased particles. Each antibody solid-phased particle was suspended in a particle diluent (50 mM Tris buffer, 1 mM EDTA-2Na, 0.1% NaN3, 2.0% BSA, pH 7.2) in order to obtain each antibody solid-phased particle solution.
Desalted alkaline phosphatase (ALP) was mixed with N-(4-maleimidobutyryloxy)-succinimide (GMBS) (final concentration 0.3 mg/mL) and the resulting solution was allowed to stand at 30° C. for one hour for maleimidation of ALP. Next, in a coupling reactant solution (100 mM phosphate buffer, 1 mM EDTA-2Na, pH 6.3), Fab's of mouse anti-CD9 monoclonal antibody was mixed with maleimidized ALP at a molar ratio of 1: 1, and reacted at 25° C. for one hour. The reactant solution was subjected to purification using Superdex 200 column chromatography (General Electric Company) to obtain ALP-labeled anti-CD9 antibody. Each ALP-labeled antibody was suspended in a labeled antibody diluent (50 mM MES buffer, 150 mM NaCl2, 0.3 mM ZnCl2, 1 mM MgCl2, 0.1% NaN3, 2.0% BSA, pH 6.8) to obtain each labeled antibody solution.
20 μL of the sample for measurement and 50 μL of the anti-CD9 antibody solid-phased particle solution were dispensed into the reaction vessel and stirred. Then, the resulting solution was incubated at 37° C. for 8 minutes (primary reaction), and B/F separation and washing were carried out. 50 μL of the ALP-labeled antibody was dispensed into the reaction vessel, the resulting solution was stirred and then incubated at 37° C. for 8 minutes, and B/F separation and washing were carried out. Then, 200 μL of Lumipulse (registered trademark) substrate solution (Fujirebio Inc.) containing 3-(2′-spiroadamantane)-4-methoxy-4-(3″-phosphoryloxy)phenyl-1,2-dioxetane disodium salt (AMPPD) serving as a chemiluminescent substance was dispensed into the reaction chamber. The resulting solution was stirred and then incubated at 37° C. for 4 minutes for the measurement of luminescence intensity using luminometer. A count value was obtained as the measured value. The luminescence intensity was measured using a fully automated chemiluminescent enzyme immunoassay system (Lumipulse L2400 (Fujirebio Inc.)).
Antibodies recognizing the same epitope in CD9 were used as the antibody solid-phased on the magnetic particle and the ALP-labeled antibody. […]

## O=C(O)CN(CCOCCOCCN(CC(=O)O)CC(=O)O)CC(=O)O [EGTA, glycol ether diamine tetraacetic acid]
EGTA 10 mM
  CD9 Count: 4671
EGTA 50 mM
  CD9 Count: 8886
EGTA 100 mM
  CD9 Count: 16084
EGTA 200 mM
  CD9 Count: 21812
